The source of these data is PMC10865787.

The chains behind the UniProt entries cited, without tags or fusion partners. Where a name states a change or a piece, a line headed by the entry shows the natural chain unless it says otherwise.
UniProt P0DTC6, whole entry, stated change not applied: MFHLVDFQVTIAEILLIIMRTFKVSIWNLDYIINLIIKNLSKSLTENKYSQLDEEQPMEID

The target of the assay is SARS-CoV-2 ORF6-HA (SARS-CoV-2) (UniProt P0DTC6). The assay is described as follows: affinity purification with mass spectrometry.

Results are given in words; binding and its absence hold for the method and conditions named. In cells and extracts the contact can be indirect. A yes stands for co-enrichment or nearness to the bait. Other partners may have been found.

As to “Cullin 4B (CUL4B), endogenous (from UniProt Q13620 1-913)”, the binding result is listed as “binds”.
